Screening data, single-dose tests

Sequences of proteins named here, by UniProt entry; tags and fusion partners are left off. Residues count along the entry.
UniProt I6X8D2, whole entry: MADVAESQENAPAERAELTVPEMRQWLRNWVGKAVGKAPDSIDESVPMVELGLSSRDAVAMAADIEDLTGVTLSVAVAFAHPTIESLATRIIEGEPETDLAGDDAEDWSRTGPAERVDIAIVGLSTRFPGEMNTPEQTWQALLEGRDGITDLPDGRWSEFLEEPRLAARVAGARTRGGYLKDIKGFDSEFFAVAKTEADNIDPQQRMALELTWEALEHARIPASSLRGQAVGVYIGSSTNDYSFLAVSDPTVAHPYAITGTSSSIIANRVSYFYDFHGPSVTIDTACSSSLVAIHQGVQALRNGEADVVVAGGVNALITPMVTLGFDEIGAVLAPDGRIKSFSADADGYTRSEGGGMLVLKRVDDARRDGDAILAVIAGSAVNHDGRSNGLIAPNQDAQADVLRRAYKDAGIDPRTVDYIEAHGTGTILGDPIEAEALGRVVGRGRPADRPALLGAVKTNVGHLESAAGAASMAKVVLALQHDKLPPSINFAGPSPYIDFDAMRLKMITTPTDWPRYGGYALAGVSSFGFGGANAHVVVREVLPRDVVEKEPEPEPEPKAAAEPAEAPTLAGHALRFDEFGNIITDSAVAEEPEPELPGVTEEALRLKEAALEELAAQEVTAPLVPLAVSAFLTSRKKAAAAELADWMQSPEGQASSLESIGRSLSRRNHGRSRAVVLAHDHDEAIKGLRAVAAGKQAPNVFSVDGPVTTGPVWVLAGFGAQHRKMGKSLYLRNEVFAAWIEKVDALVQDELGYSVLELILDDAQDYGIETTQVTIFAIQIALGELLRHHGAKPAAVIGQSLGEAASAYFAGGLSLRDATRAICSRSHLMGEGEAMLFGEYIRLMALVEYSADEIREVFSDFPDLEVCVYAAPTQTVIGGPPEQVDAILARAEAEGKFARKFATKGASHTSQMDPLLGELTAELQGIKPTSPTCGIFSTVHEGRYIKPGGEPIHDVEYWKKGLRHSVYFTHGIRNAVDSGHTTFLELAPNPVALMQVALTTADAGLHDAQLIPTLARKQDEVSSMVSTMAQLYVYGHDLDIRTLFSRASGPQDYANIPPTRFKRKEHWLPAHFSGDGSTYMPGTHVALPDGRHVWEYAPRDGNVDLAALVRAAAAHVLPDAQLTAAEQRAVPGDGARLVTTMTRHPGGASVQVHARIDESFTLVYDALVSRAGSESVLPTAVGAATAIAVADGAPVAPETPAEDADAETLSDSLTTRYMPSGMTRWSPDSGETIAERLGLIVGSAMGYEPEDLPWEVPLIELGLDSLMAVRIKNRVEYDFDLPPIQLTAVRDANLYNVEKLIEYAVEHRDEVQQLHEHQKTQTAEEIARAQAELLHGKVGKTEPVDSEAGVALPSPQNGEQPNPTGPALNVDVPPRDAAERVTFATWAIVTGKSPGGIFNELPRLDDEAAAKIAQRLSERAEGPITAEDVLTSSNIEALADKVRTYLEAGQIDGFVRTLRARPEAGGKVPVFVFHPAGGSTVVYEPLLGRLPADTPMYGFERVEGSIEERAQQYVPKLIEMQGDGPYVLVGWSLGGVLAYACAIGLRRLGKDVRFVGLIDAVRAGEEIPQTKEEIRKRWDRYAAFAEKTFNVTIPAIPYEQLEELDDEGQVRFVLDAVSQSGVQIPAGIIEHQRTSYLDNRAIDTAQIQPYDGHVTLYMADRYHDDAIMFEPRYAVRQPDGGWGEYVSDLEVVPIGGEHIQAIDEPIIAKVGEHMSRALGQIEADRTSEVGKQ
UniProt Q4DA54, 1-478: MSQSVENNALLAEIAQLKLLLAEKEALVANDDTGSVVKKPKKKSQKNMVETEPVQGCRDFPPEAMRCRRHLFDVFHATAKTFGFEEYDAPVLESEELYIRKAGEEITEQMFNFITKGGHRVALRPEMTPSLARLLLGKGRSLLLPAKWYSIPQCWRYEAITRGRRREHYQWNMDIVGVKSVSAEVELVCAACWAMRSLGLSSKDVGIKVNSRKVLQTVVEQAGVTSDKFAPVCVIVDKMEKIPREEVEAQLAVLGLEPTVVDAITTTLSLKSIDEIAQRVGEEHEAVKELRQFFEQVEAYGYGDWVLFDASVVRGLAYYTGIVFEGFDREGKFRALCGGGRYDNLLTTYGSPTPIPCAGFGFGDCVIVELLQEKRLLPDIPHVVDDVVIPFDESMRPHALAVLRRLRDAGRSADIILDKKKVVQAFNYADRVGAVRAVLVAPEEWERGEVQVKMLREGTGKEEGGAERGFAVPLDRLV
UniProt P9WPC5, whole entry: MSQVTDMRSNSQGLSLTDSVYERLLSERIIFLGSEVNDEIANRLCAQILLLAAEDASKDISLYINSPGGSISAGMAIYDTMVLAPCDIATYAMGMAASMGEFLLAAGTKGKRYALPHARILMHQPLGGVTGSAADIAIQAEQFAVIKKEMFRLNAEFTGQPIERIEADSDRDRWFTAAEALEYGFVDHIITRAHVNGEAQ
UniProt P9WPC3, whole entry partner: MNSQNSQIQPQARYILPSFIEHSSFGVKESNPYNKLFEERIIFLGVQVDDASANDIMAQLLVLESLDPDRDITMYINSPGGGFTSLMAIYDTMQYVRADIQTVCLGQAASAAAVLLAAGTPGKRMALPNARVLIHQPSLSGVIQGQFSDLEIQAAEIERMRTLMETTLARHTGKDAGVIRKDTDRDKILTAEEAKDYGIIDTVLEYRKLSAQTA
UniProt A4I591, 1-473: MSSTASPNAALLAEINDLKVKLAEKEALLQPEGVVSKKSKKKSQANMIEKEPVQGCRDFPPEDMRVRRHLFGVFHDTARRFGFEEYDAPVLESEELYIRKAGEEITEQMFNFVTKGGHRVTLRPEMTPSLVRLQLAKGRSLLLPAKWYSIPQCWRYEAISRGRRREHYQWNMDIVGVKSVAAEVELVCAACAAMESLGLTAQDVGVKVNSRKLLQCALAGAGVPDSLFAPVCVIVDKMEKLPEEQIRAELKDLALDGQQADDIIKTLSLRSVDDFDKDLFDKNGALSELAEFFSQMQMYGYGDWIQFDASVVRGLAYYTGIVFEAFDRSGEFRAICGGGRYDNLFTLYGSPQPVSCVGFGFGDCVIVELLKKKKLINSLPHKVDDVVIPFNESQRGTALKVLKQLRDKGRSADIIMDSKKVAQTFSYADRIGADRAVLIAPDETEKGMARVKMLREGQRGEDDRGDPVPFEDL

Source: ChEMBL document CHEMBL3988442, “University of Dundee, Small-Polar-MMV Screening Library” (2021).

Pks13 thioesterase: 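Polyketide synthase Pks13, Mycobacterium tuberculosis (UniProt I6X8D2). Enzyme assay of the thioesterase domain of polyketide synthase 13; the read-out is not stated. Compounds at 30 µM. Higher reads as stronger inhibition (inferred from which compounds were picked for retests). About 67,000 compounds were tested under these conditions; 0.46% (about 300) showed 50% or more at least once.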
TcHisRS: 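Histidine-tRNA ligase, Trypanosoma cruzi CL Brener (UniProt Q4DA54). Enzyme assay of histidyl-tRNA synthetase; the read-out is not stated. Concentration: 30 µM. The record gives no direction; compounds that gave an IC50 in retests scored well above the rest, so higher reads as stronger inhibition. Of about 69,000 compounds tested this way, about 31 (0.045%) reached 50% or more in at least one test.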
ClpP1P2: 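ClpP1P2, Mycobacterium tuberculosis (UniProt P9WPC5 and UniProt P9WPC3). Protease assay of ClpP1P2, read by the AMC dye that it sets free. Compounds at 50 µM. Higher reads as stronger inhibition, judged from the few compounds that gave an IC50. Most other retested compounds had strongly negative values. Of about 69,000 compounds tested this way, about 10 (0.015%) reached 50% or more in at least one test.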
Leishmania in macrophages: 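Cell assay of Leishmania donovani living inside macrophages; the read-out is not stated. Concentration: 30 µM. The record gives no direction; compounds that gave an IC50 in retests scored well above the rest, so higher reads as stronger inhibition. Size under these conditions: about 69,000 compounds, about 1,000 of them at 50% or above in at least one test.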
LiHisRS: 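Histidine-tRNA ligase, Leishmania infantum (UniProt A4I591). Enzyme assay of histidyl-tRNA synthetase; the read-out is not stated. Tested at 30 µM. Direction is inferred from retests: higher values go with stronger inhibition. The assay is labelled LdHisRS but filed under L. infantum. Size under these conditions: about 69,000 compounds, about 410 of them at 50% or above in at least one test.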

The filed quantity is “Percent Effect” (%).
The record does not define 0% and 100%; most values in the screen are far below 50% and negative numbers occur (in some assays of this library far below -100).
The compounds are a random part of those screened.
Two or more numbers in one place are separate tests of the same structure; such repeats can differ widely.
A dash means the value is not listed here; it may have been measured.

| SMILES | Pks13 thioesterase | TcHisRS | ClpP1P2 | Leishmania in macrophages | LiHisRS |
|---|---|---|---|---|---|
| `O=C(O)C(F)(F)F.[H][C@]12CN(Cc3nccs3)C[C@@]1([H])OCCN(C(=O)c1cccn1C)C2` | - | - | - | 19.49 | - |
| `O=C(Nc1ccn(Cc2cccc3cccnc23)n1)C1COCCO1` (stereo not shown) | 8.208 | 3.247 | -10.04 | 13.23 | 16.13 |
| `Cc1cc(C)n(CC2CN(Cc3cccc(C(N)=O)c3)CCO2)n1` (stereo not shown) | -13.25 | -2.674 | 0.2167 | 16.43 | 1.923 |
| `CCc1ccc(CN2C[C@@H](C)C3(CCN(CC(=O)N(C)C)C3=O)C2)o1.O=C(O)C(F)(F)F` (stereo partly shown) | - | - | - | 12.09 | - |
| `Cc1ccsc1C(=O)N1CC[C@@H](N(C)C)[C@@H]1Cc1cnn(C)c1` | -10.76 | 5.882 | -0.08074 | - | 20 |
| `CCc1c(C)noc1-c1cnc(NC2CC2)nc1-c1cnc(C)cn1` | 3.477 | 9.125 | 4.069 | 8.158 | 8.966 |
| `COCCNC(=O)N1CCN(c2cc(F)ccc2F)CC1` | -14.3 | -0.8696 | -1.61 | 8.758 | 11.67 |
| `Cc1cc(N2CCC(CO)(CC3CCCCO3)CC2)c2ccccc2n1` (stereo not shown) | 15.34 | -5.797 | -3.083 | 35.26 | 10.83 |
| `Cc1cc2ccccc2n1CCC(=O)N1CCC2(CC1)CNC(=O)C2` | 22.21 | -21.05 | -14.5 | 21.52 | 32.26 |
| `Cc1nccn1CCC1CCCCN1Cc1ccc(O)cc1Cl` (stereo not shown) | -6.155 | 0 | -12.44 | 62.65 | 16.67 |
| `O=C1[C@H]2CN(Cc3ccc(F)cc3)C[C@H]2CN1CCN1CCCC1` | -22.76 | 3.883 | 9.827 | - | -48.08 |
| `Cn1nccc1CNC(=O)CCn1nc(C(F)(F)F)c(Cl)c1C1CC1` | 18.25 | 2.312 | -2.414 | 22.29 | 10.31 |
| `CN1CC(=O)N(c2cccc(F)c2)CC12CCN(Cc1cccnc1)C2` (stereo not shown) | -14.15 | 6.522 | -7.923 | - | 18.45 |
| `CC(=O)Nc1nc(C2CN(C(=O)C3CCC3)C2)cs1` | -2.555 | 1.521 | -4.998 | 5.821 | 4.828 |
| `Cc1nc(C)n(C2CCCN(C(=O)c3ccc(N(C)C)nn3)C2)n1` (stereo not shown) | -15.29 | 2.642 | -3.642 | 17.54 | 8 |
| `CCn1cc(CN(C)S(=O)(=O)c2cnn(CC)c2C)c(C)n1` | -11.35 | 3.226 | 12.65 | 32.71 | 17.14 |
| `CC(C)OCCS(=O)(=O)NC1CCN(C2CCCC2)C1` (stereo not shown) | -14.24 | 4.902 | 16.5 | 9.352 | 16.67 |
| `CCN(CC)C(=O)Cn1ccc2cc(NC(=O)C3CCCCC3)ccc21` | -4.662 | 2.367 | 6.773 | -5.408 | 3.571 |
| `Cc1nc[nH]c1CN1C[C@@H]2CC[C@H](C1)N(C(=O)CCNS(C)(=O)=O)C2` | -1.65 | 1.626 | -0.7065 | - | 16.35 |
| `[H][C@@]12CCN(Cc3c(C)noc3C)C[C@@]1([H])O[C@H](c1ccncn1)C2` | - | - | - | 16.81 | - |
| `O=C(c1cocn1)N1C[C@H]2CCC[C@@]2(COCc2cccnc2)C1` | -6.027 | 5.6 | 3.059 | - | 9.735 |
| `COc1ccc(S(=O)(=O)N2CCn3cnc(COCC4CC4)c3C2)cc1` | 28.31 | 5.941 | -5.349 | -34.79 | -1.37 |
| `COc1ccccc1CNC(Cn1cncn1)c1ccccc1` (stereo not shown) | -18.81 | 3.784 | -5.696 | 15.46 | 10.96 |
| `CSCC(CCO)Nc1nc(C(F)F)nc2ccccc12` (stereo not shown) | -12.99 | 9.845 | -3.334 | 38.7 | 19.1 |
| `Cc1csc(CN(C)S(=O)(=O)c2ccc(C)c(N(C)C)c2)n1` | -8.544 | -18.97 | -8.998 | 31.23 | -13.39 |
| `CCc1nc(C2CCCN2Cc2ccno2)no1` (stereo not shown) | 3.955 | 2.874 | -10.92 | 5.593 | 10.43 |
| `COCc1cccc(CNC(=O)CNc2ccccc2C(C)=O)c1` | -7.26 | 2.212 | -40.64 | 14.23 | 7.965 |
| `CCOCC(O)CN1CCN(C(=O)Cc2cccc(C)c2)CC1` (stereo not shown) | -8.411 | 5.917 | -31.39 | 32.8 | 17.86 |
| `CCOC(=O)N1CCN(C(=O)C2Cc3ccccc3CN2C)CC1` (stereo not shown) | -23.58 | 0 | 6.378 | 6.429 | 11.43 |
| `CC(Cc1ccccn1)N(C)C(=O)c1ncc[nH]1` (stereo not shown) | - | 3.409 | -3.531 | 8.061 | 15 |
| `c1cnc2c(c1)cc([C@@H]1CCCO1)n2CCN1CCCCC1` | 9.867 | 3.191 | -0.3264 | - | 21.88 |
| `COC(=O)c1ccc2ccn(CC3CCCCO3)c(=O)c2c1` (stereo not shown) | -11.39 | 2.513 | -11.52 | 3.282 | 12 |
| `COc1c(C2CCCN2C(=O)c2ccc(C#N)c(C)n2)c(C)nn1C` (stereo not shown) | -1.827 | 2.254 | -12.18 | 14.75 | 13.04 |
| `O=C(CCCNC(=O)Nc1ccc(F)cc1)Nc1cn[nH]c1` | -8.661 | 0 | 3.623 | -10.82 | 13.7 |
| `O=C(NC1CCCN(c2ccccn2)C1)C1(c2ccccc2F)CC1` (stereo not shown) | -9.304 | 9.848 | -2.721 | 20.31 | 13.04 |
| `CSCC(C)(O)CNC(=O)c1ccc(F)cc1Cl` (stereo not shown) | -25.84 | 4.233 | 1.58 | 5.768 | 15.15 |
| `O=C(CCS(=O)(=O)C1CCCC1)NCCc1cccnc1` | -44.28 | 1.948 | -6.512 | 33.23 | 11.29 |
| `COc1ccc(CN2CCC3(CCN(c4cccnc4)C3=O)C2)cc1.O=C(O)C(F)(F)F.O=C(O)C(F)(F)F` (stereo not shown) | - | - | - | -28.16 | - |
| `O=C(CCc1ccccc1)Nc1ncccc1OC(F)F` | -3.708 | 4.878 | -1.247 | -11.17 | 20.19 |
| `Cn1cc(C(=O)N2CCCN(c3cccnn3)CC2)c2ccccc21` | -6.938 | 2.041 | -12.93 | 11.67 | 4.959 |
| `Cc1ccc(-c2nc(CN3CCOC(Cn4cccn4)C3)cs2)o1` (stereo not shown) | -10.3 | 5 | -16.85 | 17.59 | 15.38 |
| `CCCc1n[nH]c(C2CN(C(=O)c3cccc4cn[nH]c34)CCO2)n1` (stereo not shown) | 1.655 | 1.734 | -18.09 | 21.98 | 13.39 |
| `Cl.NC(Cc1nc(-c2ccccc2)no1)c1ccccc1` (stereo not shown) | - | - | - | -5.876 | - |
| `CC(=O)N1CCS(=O)(=O)[C@@H]2CCN(S(=O)(=O)CC(C)C)CC[C@@H]21` | -48.08 | 2.151 | 8.73 | - | 17.54 |
| `CC(Cn1cccn1)C(=O)N1CCC(Nc2cccnn2)CC1` (stereo not shown) | -43.35 | 2.703 | -14.94 | 7.625 | 6.838 |
| `Cc1cc(C(=O)N2CCc3nc(C4CCCN4)ncc3C2)cs1.Cl` (stereo not shown) | - | - | - | 10.87 and 2.598 | - |
| `CC(C)(C)c1nnc(CNc2cc(F)ccc2OCC2CCCO2)o1` (stereo not shown) | -0.6295 | 0.9852 | 9.176 | 23.56 | 12.33 |
| `Cn1ccnc1CN1CCC2(CC(=O)N(c3ccc4c(c3)OCO4)C2)C1` (stereo not shown) | 1.012 | 14.29 | -2.971 | - | 27 |
| `N#CCCN(C(=O)CN1CCCC1c1ccsc1)c1ccccc1` (stereo not shown) | -11.25 | 9.038 | -9.34 | 22.65 | 9.174 |
| `CC(Cc1cn(CCc2nnn[nH]2)nn1)c1ccccc1` (stereo not shown) | -14.98 | 0.4975 | -5.998 | -4.414 | 11.19 |
| `Cc1cc(C)c(CNC(=O)N2CCCC2c2cc(C)on2)c(=O)[nH]1` (stereo not shown) | -5.838 | 7.163 | 4.796 | 13.32 | 14.04 |
| `Cc1nsc(C(=O)NCCc2ccc(Cl)cc2)n1` | 3.15 | 1.587 | -0.3318 | 25.28 | 6.667 |
| `O=C(CCC(=O)N1CCC(Oc2ncccc2Br)CC1)c1ccccc1` | 15.24 | 1.111 | 2.222 | 48.29 | 5.983 |
| `O=C(NCCc1nnc2n1CCCCC2)N1CCC2(CCOC2)C1` (stereo not shown) | -0.9848 | -1.685 | -0.7484 | 18.45 | 12.82 |
| `O=C(COCC(F)(F)C(F)F)N1CCC2(CCCN(CCO)C2=O)C1` (stereo not shown) | -33.46 | 9.211 | -2.886 | 13.89 | 19.17 |
| `Cc1nc(CN2CCc3ncnc(-c4cccnc4)c3CC2)cs1` | -17 | 0.9346 | 16.36 | - | 5.556 |
| `CC1CN(C(=O)c2cnn(-c3ccccn3)c2C(C)C)CC(C)(C)O1` (stereo not shown) | -3.606 | 0 | 1.063 | 0.2829 | 22.39 |
| `O=CO.c1cc2nccc(CC3CCCN(Cc4c[nH]cn4)CC3)c2cn1` (stereo not shown) | - | - | - | 26.34 and 17.28 | - |
| `NC(=O)C1CN(C(=O)Nc2ccccc2N2CCCCCC2)CCO1` (stereo not shown) | -13.84 | -0.3831 | 8.81 | 22.42 | 21.54 |
| `Cc1cc(-c2cnc(N3CCSCC3)nc2C(C)C)on1` | 4.67 | -1.13 | -10.91 | -38.52 | 1.399 |
| `CSCCC(O)C(=O)N(C)Cc1cnn(-c2ccc(F)cc2)c1` (stereo not shown) | -6.177 | 0 | -5.092 | 1.018 | 2.857 |
| `O=c1c(NCCNCCO)c(N2CCN(c3ccc(F)cc3)CC2)c1=O` | -0.9991 | 1.22 | -7.519 | -1.701 and -3.571 | 15.79 |

4 of the entries, repeated:

{"smiles": "NC(=O)C1CN(C(=O)Nc2ccccc2N2CCCCCC2)CCO1", "stereo": "stereo not shown", "Pks13 thioesterase": -13.84, "TcHisRS": -0.3831, "ClpP1P2": 8.81, "Leishmania in macrophages": 22.42, "LiHisRS": 21.54}
{"smiles": "CC(=O)Nc1nc(C2CN(C(=O)C3CCC3)C2)cs1", "Pks13 thioesterase": -2.555, "TcHisRS": 1.521, "ClpP1P2": -4.998, "Leishmania in macrophages": 5.821, "LiHisRS": 4.828}
{"smiles": "Cc1nc(C)n(C2CCCN(C(=O)c3ccc(N(C)C)nn3)C2)n1", "stereo": "stereo not shown", "Pks13 thioesterase": -15.29, "TcHisRS": 2.642, "ClpP1P2": -3.642, "Leishmania in macrophages": 17.54, "LiHisRS": 8}
{"smiles": "CCOC(=O)N1CCN(C(=O)C2Cc3ccccc3CN2C)CC1", "stereo": "stereo not shown", "Pks13 thioesterase": -23.58, "TcHisRS": 0, "ClpP1P2": 6.378, "Leishmania in macrophages": 6.429, "LiHisRS": 11.43}